Results are given in words; binding and its absence hold for the method and conditions named. Binding seen in cells or lysates may run through a third protein.
Target: MPP7 ΔPDZ (pCDNA3-Flag-Mpp7 △PDZ) (human) (UniProt Q5T2T1)
Assay: co-IP; lysates of transfected 293T cells incubated with anti-FLAG M2 magnetic beads or anti-V5 agarose beads at 4 °C for 4 h or overnight; washed three times with NP-40 lysis buffer (50 mM Tris-HCl pH 8.0, 150 mM NaCl, 1% NP-40, 0.5 mM DTT) and once with PBS; Western blot with anti-HA, anti-V5 or …

Amino acid sequences for entries named in this document (tags omitted).
UniProt Q9GZV5: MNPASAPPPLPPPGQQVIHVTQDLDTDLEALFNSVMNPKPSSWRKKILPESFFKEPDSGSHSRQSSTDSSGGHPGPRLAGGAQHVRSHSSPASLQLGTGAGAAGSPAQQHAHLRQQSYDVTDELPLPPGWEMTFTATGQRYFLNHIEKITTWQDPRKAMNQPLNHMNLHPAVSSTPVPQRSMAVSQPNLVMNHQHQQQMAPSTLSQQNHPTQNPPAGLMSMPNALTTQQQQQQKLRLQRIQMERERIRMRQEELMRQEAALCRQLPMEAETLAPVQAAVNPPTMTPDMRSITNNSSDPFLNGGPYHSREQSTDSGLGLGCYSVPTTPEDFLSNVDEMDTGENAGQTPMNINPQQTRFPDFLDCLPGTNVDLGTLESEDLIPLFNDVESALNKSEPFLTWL

binding: no binding
Substance: V5-TAZ (from UniProt Q9GZV5 1-400)

Source: paper PMC11624273
